Measurements: US20200061087A1, “Inhibiting the Fungal Cell-Surface Phospate Transporter PHO84” (Children's Medical Center Corporation, priority 2017, published 2020)
At least one structure is not confirmed: it was looked up by name or label, or the drawing left a doubt.

Experiments:
[1] = system: S. cerevisiae pho84 null mutant; experiment: Rapamycin tolerance of S. cerevisiae pho84 null mutants; type: cell-based, Saccharomyces cerevisiae
[2] = system: C. albicans PHO84 mutant series; experiment: Rapamycin tolerance, cell dilutions pinned onto YPD agar; type: cell-based, Candida albicans; settings: heterozygous and homozygous null mutants; YPD with 12 ng/ml rapamycin; FIG. 1A

CO[C@H]1C[C@@H]2CC[C@@H](C)[C@@](O)(O2)C(=O)C(=O)N2CCCC[C@H]2C(=O)O[C@H]([C@H](C)C[C@@H]2CC[C@@H](O)[C@H](OC)C2)CC(=O)[C@H](C)/C=C(\C)[C@@H](O)[C@@H](OC)C(=O)[C@H](C)C[C@H](C)/C=C/C=C/C=C/1C [rapamycin]
Rapamycin susceptibility of pho84 null mutant ([1]; S288C genetic background, intermediate ambient Pi concentration (1 mM), 20 ng/ml rapamycin, FIG. 8A): hypersensitive to rapamycin | Rapamycin tolerance after loss of PHO84 ([1]; Σ1278b background): not decreased | Rapamycin susceptibility of pho84 deletion mutants [2]: hypersensitive
